In the supplement of paper PMC8728848:
The other results are listed elsewhere or left out.

Tests used:
Assay in all cases: glycan array binding signal (z-score within array); higher = stronger binding
Settings in all cases: glycan notation: IUPAC condensed, linker removed
Gal(b1-4)Glc = biological target: Gal(b1-4)Glc
Outline: (§1)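 The binding signal is a Z-score computed within each array. Data were drawn from 3228 arrays in the Consortium for Functional Glycomics database, restricted to those with a known protein sequence. Scores were averaged over arrays of the same protein sequence at different concentrations or buffers, and over linkers, and negative values can be taken as non-binding.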

Gal(b1-4)Glc6S = biological target: Gal(b1-4)Glc6S
Outline: as §1

Gal(b1-4)GlcNAc = biological target: Gal(b1-4)GlcNAc
Outline: as §1

[1] = biological target: Gal(b1-4)GlcNAc(a1-6)Gal(b1-4)GlcNAc
Outline: as §1

Gal(b1-4)GlcNAc(b1-2)Man = biological target: Gal(b1-4)GlcNAc(b1-2)Man
Outline: as §1

[2] = biological target: Gal(b1-4)GlcNAc(b1-2)Man(a1-3)Man(b1-4)GlcNAc(b1-4)GlcNAc
Outline: as §1

[3] = biological target: Gal(b1-4)GlcNAc(b1-2)Man(a1-3)[Gal(b1-4)GlcNAc(b1-2)Man(a1-6)]Man(b1-4)GlcNAc(b1-4)GlcNAc
Outline: as §1

[4] = biological target: Gal(b1-4)GlcNAc(b1-2)Man(a1-3)[Gal(b1-4)GlcNAc(b1-2)Man(a1-6)]Man(b1-4)GlcNAc(b1-4)[Fuc(a1-6)]GlcNAc
Outline: as §1

[5] = biological target: Gal(b1-4)GlcNAc(b1-2)Man(a1-3)[Gal(b1-4)GlcNAc(b1-2)Man(a1-6)][Gal(b1-4)GlcNAc(b1-4)]Man(b1-4)GlcNAc(b1-4)[Fuc(a1-6)]GlcNAc
Outline: as §1

[6] = biological target: Gal(b1-4)GlcNAc(b1-2)Man(a1-3)[Gal(b1-4)GlcNAc(b1-2)Man(a1-6)][GlcNAc(b1-4)]Man(b1-4)GlcNAc(b1-4)[Fuc(a1-6)]GlcNAc
Outline: as §1

[7] = biological target: Gal(b1-4)GlcNAc(b1-2)Man(a1-3)[GlcNAc(b1-2)Man(a1-6)]Man(b1-4)GlcNAc(b1-4)GlcNAc
Outline: as §1

[8] = biological target: Gal(b1-4)GlcNAc(b1-2)Man(a1-3)[GlcNAc(b1-4)][Gal(b1-4)GlcNAc(b1-2)Man(a1-6)]Man(b1-4)GlcNAc(b1-4)GlcNAc
Outline: as §1

[9] = biological target: Gal(b1-4)GlcNAc(b1-2)Man(a1-3)[Man(a1-6)]Man(b1-4)GlcNAc(b1-4)GlcNAc
Outline: as §1

[10] = biological target: Gal(b1-4)GlcNAc(b1-2)Man(a1-6)Man(b1-4)GlcNAc(b1-4)GlcNAc
Outline: as §1

[11] = biological target: Gal(b1-4)GlcNAc(b1-2)Man(a1-6)[GlcNAc(b1-2)Man(a1-3)]Man(b1-4)GlcNAc(b1-4)GlcNAc
Outline: as §1

[12] = biological target: Gal(b1-4)GlcNAc(b1-2)Man(a1-6)[Man(a1-3)]Man(b1-4)GlcNAc(b1-4)GlcNAc
Outline: as §1

[13] = biological target: Gal(b1-4)GlcNAc(b1-2)[Gal(b1-4)GlcNAc(b1-4)]Man(a1-3)[Gal(b1-4)GlcNAc(b1-2)Man(a1-6)]Man(b1-4)GlcNAc(b1-4)GlcNAc
Outline: as §1

[14] = biological target: Gal(b1-4)GlcNAc(b1-2)[Gal(b1-4)GlcNAc(b1-4)]Man(a1-3)[Gal(b1-4)GlcNAc(b1-2)[Gal(b1-4)GlcNAc(b1-6)]Man(a1-6)]Man(b1-4)GlcNAc(b1-4)GlcNAc
Outline: as §1

[15] = biological target: Gal(b1-4)GlcNAc(b1-2)[Gal(b1-4)GlcNAc(b1-4)]Man(a1-3)[GlcNAc(b1-4)][Gal(b1-4)GlcNAc(b1-2)Man(a1-6)]Man(b1-4)GlcNAc(b1-4)GlcNAc
Outline: as §1

[16] = biological target: Gal(b1-4)GlcNAc(b1-2)[Gal(b1-4)GlcNAc(b1-4)]Man(a1-3)[GlcNAc(b1-4)][Gal(b1-4)GlcNAc(b1-2)[Gal(b1-4)GlcNAc(b1-6)]Man(a1-6)]Man(b1-4)GlcNAc(b1-4)GlcNAc
Outline: as §1

[17] = biological target: Gal(b1-4)GlcNAc(b1-2)[Gal(b1-4)GlcNAc(b1-6)]Man(a1-6)[Gal(b1-4)GlcNAc(b1-2)Man(a1-3)]Man(b1-4)GlcNAc(b1-4)GlcNAc
Outline: as §1

[18] = biological target: Gal(b1-4)GlcNAc(b1-2)[Gal(b1-4)GlcNAc(b1-6)]Man(a1-6)[Gal(b1-4)GlcNAc(b1-2)Man(a1-3)]Man(b1-4)GlcNAc(b1-4)[Fuc(a1-6)]GlcNAc
Outline: as §1

[19] = biological target: Gal(b1-4)GlcNAc(b1-2)[Gal(b1-4)GlcNAc(b1-6)]Man(a1-6)[GlcNAc(b1-4)][Gal(b1-4)GlcNAc(b1-2)Man(a1-3)]Man(b1-4)GlcNAc(b1-4)GlcNAc
Outline: as §1

[20] = biological target: Gal(b1-4)GlcNAc(b1-2)[Gal(b1-4)GlcNAc(b1-6)]Man(a1-6)[GlcNAc(b1-4)][Gal(b1-4)GlcNAc(b1-2)[Gal(b1-4)GlcNAc(b1-4)]Man(a1-3)]Man(b1-4)GlcNAc(b1-4)[Fuc(a1-6)]GlcNAc
Outline: as §1

[21] = biological target: Gal(b1-4)GlcNAc(b1-3)Gal(b1-3)GalNAc
Outline: as §1

[22] = biological target: Gal(b1-4)GlcNAc(b1-3)Gal(b1-3)GlcNAc
Outline: as §1

[23] = biological target: Gal(b1-4)GlcNAc(b1-3)Gal(b1-4)Glc
Outline: as §1

[24] = biological target: Gal(b1-4)GlcNAc(b1-3)Gal(b1-4)GlcNAc
Outline: as §1

[25] = biological target: Gal(b1-4)GlcNAc(b1-3)Gal(b1-4)GlcNAc(b1-2)Man(a1-3)[Gal(b1-4)GlcNAc(b1-3)Gal(b1-4)GlcNAc(b1-2)Man(a1-6)]Man(b1-4)GlcNAc(b1-4)GlcNAc
Outline: as §1

[26] = biological target: Gal(b1-4)GlcNAc(b1-3)Gal(b1-4)GlcNAc(b1-2)Man(a1-3)[Gal(b1-4)GlcNAc(b1-3)Gal(b1-4)GlcNAc(b1-2)Man(a1-6)]Man(b1-4)GlcNAc(b1-4)[Fuc(a1-6)]GlcNAc
Outline: as §1

[27] = biological target: Gal(b1-4)GlcNAc(b1-3)Gal(b1-4)GlcNAc(b1-2)[Gal(b1-4)GlcNAc(b1-3)Gal(b1-4)GlcNAc(b1-6)]Man(a1-6)[Gal(b1-4)GlcNAc(b1-3)Gal(b1-4)GlcNAc(b1-2)Man(a1-3)]Man(b1-4)GlcNAc(b1-4)GlcNAc
Outline: as §1

[28] = biological target: Gal(b1-4)GlcNAc(b1-3)Gal(b1-4)GlcNAc(b1-2)[Gal(b1-4)GlcNAc(b1-3)Gal(b1-4)GlcNAc(b1-6)]Man(a1-6)[Gal(b1-4)GlcNAc(b1-3)Gal(b1-4)GlcNAc(b1-2)Man(a1-3)]Man(b1-4)GlcNAc(b1-4)[Fuc(a1-6)]GlcNAc
Outline: as §1

[29] = biological target: Gal(b1-4)GlcNAc(b1-3)Gal(b1-4)GlcNAc(b1-3)Gal(b1-4)GlcNAc
Outline: as §1

[30] = biological target: Gal(b1-4)GlcNAc(b1-3)Gal(b1-4)GlcNAc(b1-3)Gal(b1-4)GlcNAc(b1-2)Man(a1-3)[Gal(b1-4)GlcNAc(b1-3)Gal(b1-4)GlcNAc(b1-3)Gal(b1-4)GlcNAc(b1-2)Man(a1-6)]Man(b1-4)GlcNAc(b1-4)GlcNAc
Outline: as §1

[31] = biological target: Gal(b1-4)GlcNAc(b1-3)Gal(b1-4)GlcNAc(b1-3)Gal(b1-4)GlcNAc(b1-2)Man(a1-3)[Gal(b1-4)GlcNAc(b1-3)Gal(b1-4)GlcNAc(b1-3)Gal(b1-4)GlcNAc(b1-2)Man(a1-6)]Man(b1-4)GlcNAc(b1-4)[Fuc(a1-6)]GlcNAc
Outline: as §1

[32] = biological target: Gal(b1-4)GlcNAc(b1-3)Gal(b1-4)GlcNAc(b1-3)Gal(b1-4)GlcNAc(b1-2)[Gal(b1-4)GlcNAc(b1-3)Gal(b1-4)GlcNAc(b1-3)Gal(b1-4)GlcNAc(b1-6)]Man(a1-6)[Gal(b1-4)GlcNAc(b1-3)Gal(b1-4)GlcNAc(b1-3)Gal(b1-4)GlcNAc(b1-2)Man(a1-3)]Man(b1-4)GlcNAc(b1-4)[Fuc(a1-6)]GlcNAc
Outline: as §1

[33] = biological target: Gal(b1-4)GlcNAc(b1-3)Gal(b1-4)GlcNAc(b1-3)Gal(b1-4)GlcNAc(b1-3)Gal(b1-4)GlcNAc(b1-2)Man(a1-3)[Gal(b1-4)GlcNAc(b1-3)Gal(b1-4)GlcNAc(b1-3)Gal(b1-4)GlcNAc(b1-3)Gal(b1-4)GlcNAc(b1-2)Man(a1-6)]Man(b1-4)GlcNAc(b1-4)GlcNAc
Outline: as §1

B1: EUL D1A (Oryza sativa) (protein)
chain: MFGFGHHHNQAPAAPSDPNQIFKIFCRANENYCLTVRDSAVVLAPVNPKDEHQHWFKDMRFSTKVKDGEGMPAFALVNKATGLAVKHSLGQSHPVKLVPFNPEYEDASVLWTESKDVGKGFRCIRMVNNTRLNLDAFHGDKDHGGVRDGTTVVLWEWCKGDNQSWKILPWGPEAHSSSPGAATACTIGGVPVHTVRVFSAAGEDYCLTVRNGTACLAPKNPRDDYQHWIKDMRHSNKIRDEEGYPAFALVNKVTGEAIKHSTGQGHPVKLVPYNPEYQDESVLWTESKDVGKGFRCIRMVNNIYLNFDAFHGDKDHGGIHDGTEIVLWKWCEGDNQRWKILPWILEQKLISEEDLNSAVDHHHHHH
glycan array binding signal (z-score) (Gal(b1-4)Glc): -1.3 | glycan array binding signal (z-score) (Gal(b1-4)Glc6S): -0.659 | glycan array binding signal (z-score) (Gal(b1-4)GlcNAc): -0.896 | glycan array binding signal (z-score) [1]: 0.248 | glycan array binding signal (z-score) (Gal(b1-4)GlcNAc(b1-2)Man): 0.883 | glycan array binding signal (z-score) [2]: -0.73 | glycan array binding signal (z-score) [3]: -0.064 | glycan array binding signal (z-score) [4]: 1.25 | glycan array binding signal (z-score) [5]: -0.538 | glycan array binding signal (z-score) [6]: -1.5 | glycan array binding signal (z-score) [7]: -0.742 | glycan array binding signal (z-score) [8]: 0.239 | glycan array binding signal (z-score) [9]: -0.581 | glycan array binding signal (z-score) [10]: -0.069 | glycan array binding signal (z-score) [11]: -1.47 | glycan array binding signal (z-score) [12]: -0.638 | glycan array binding signal (z-score) [13]: -0.621 | glycan array binding signal (z-score) [14]: -0.233 | glycan array binding signal (z-score) [15]: 0.756 | glycan array binding signal (z-score) [16]: -0.827 | glycan array binding signal (z-score) [17]: 0.366 | glycan array binding signal (z-score) [18]: 0.548 | glycan array binding signal (z-score) [19]: -0.638 | glycan array binding signal (z-score) [20]: 0.204 | glycan array binding signal (z-score) [21]: -0.226 | glycan array binding signal (z-score) [22]: 0.449 | glycan array binding signal (z-score) [23]: -0.327 | glycan array binding signal (z-score) [24]: -1.1 | glycan array binding signal (z-score) [25]: 1.96 | glycan array binding signal (z-score) [26]: 0.162 | glycan array binding signal (z-score) [27]: 0.1 | glycan array binding signal (z-score) [28]: 1.36 | glycan array binding signal (z-score) [29]: -0.076 | glycan array binding signal (z-score) [30]: 2.18 | glycan array binding signal (z-score) [31]: 1.45 | glycan array binding signal (z-score) [32]: 2.54 | glycan array binding signal (z-score) [33]: 2.32
